Source: US9434734B2, “Substituted pyrazoloquinazolinones and pyrroloquinazolinones as allosteric modulators of group II metabotropic glutamate receptors” (Domain Therapeutics, priority 2012, dated 2016)

## Cn1c(=O)c2ccc(-c3cccc(S(N)(=O)=O)c3)cc2n2nc(-c3ccccc3)cc12 [Example 1, 3-(4-Methyl-5-oxo-2-phenyl-4,5-dihydro-pyrazolo[1,5-a]quinazolin-8-yl)-benzenesulfonamide]
  melting point: 220 to 230 °C
